Like-named read-outs stand apart in the source and are kept apart here.
Tests used:
Wistar rats [1] = details: for LDH Enzyme Concentration in the Blood: oral once a day
Wistar rats [2] = details: for CK Enzyme Concentration in the Blood: oral once a day
[3] = 40 mg/kg atorvastatin alone, 1 week
[4] = 40 mg/kg atorvastatin alone, 2 weeks
[5] = 40 mg/kg atorvastatin alone, 3 weeks
[6] = 80 mg/kg atorvastatin alone, 1 week
[7] = 80 mg/kg atorvastatin alone, 2 weeks
[8] = 80 mg/kg atorvastatin alone, 3 weeks

## CC(C)c1c(C(=O)Nc2ccccc2)c(-c2ccccc2)c(-c2ccc(F)cc2)n1CC[C@@H](O)C[C@@H](O)CC(=O)O [Atorvastatin, atorvastatin]
Wistar rats [1]; [3]
  Change Rate of LDH Enzyme Concentration in the Blood As Compared With the Control Group: 9.3%
  LDH Enzyme Concentration in the Blood: 598.4 ± 48.9 IU/L
Wistar rats [1]; [4]
  Change Rate of LDH Enzyme Concentration in the Blood As Compared With the Control Group: 74.0%
  LDH Enzyme Concentration in the Blood: 1259.6 ±125.9 IU/L
Wistar rats [1]; [5]
  Change Rate of LDH Enzyme Concentration in the Blood As Compared With the Control Group: 199.9%
  LDH Enzyme Concentration in the Blood: 2268.2 ± 226.8 IU/L
Wistar rats [1]; [6]
  Change Rate of LDH Enzyme Concentration in the Blood As Compared With the Control Group: 50.7%
  LDH Enzyme Concentration in the Blood: 824.9 ± 109.4 IU/L
Wistar rats [1]; [7]
  Change Rate of LDH Enzyme Concentration in the Blood As Compared With the Control Group: 95.0%
  LDH Enzyme Concentration in the Blood: 1411.6 ± 161.3 IU/L
Wistar rats [1]; [8]
  Change Rate of LDH Enzyme Concentration in the Blood As Compared With the Control Group: 238.7%
Wistar rats [2]; [3]
  Change Rate of CK Enzyme Concentration in the Blood As Compared With the Control Group: 11.5%
  CK Enzyme Concentration in the Blood: 600.8 ± 67.2 IU/L
Wistar rats [2]; [4]
  Change Rate of CK Enzyme Concentration in the Blood As Compared With the Control Group: 47.5%
  CK Enzyme Concentration in the Blood: 958.8 ± 54.4 IU/L
Wistar rats [2]; [5]
  Change Rate of CK Enzyme Concentration in the Blood As Compared With the Control Group: 110.5%
  CK Enzyme Concentration in the Blood: 1407.9 ± 117.5 IU/L
Wistar rats [2]; [6]
  Change Rate of CK Enzyme Concentration in the Blood As Compared With the Control Group: 17.4%
  CK Enzyme Concentration in the Blood: 632.2 ± 83.2 IU/L
Wistar rats [2]; [7]
  Change Rate of CK Enzyme Concentration in the Blood As Compared With the Control Group: 85.0%
  CK Enzyme Concentration in the Blood: 1202.8 ± 138.4 IU/L
Wistar rats [2]; [8]
  Change Rate of CK Enzyme Concentration in the Blood As Compared With the Control Group: 149.4%
  CK Enzyme Concentration in the Blood: 1664.6 ± 149.9 IU/L

From patent US20130158084A1, “Pharmaceutical Composition Comprising Losartin For Treating or Preventing Statin BasedGrug-Induced Muscle Toxicity” (HANALL BIOPHARMA CO., LTD., priority 2011, published 2013)
